From PubChem BioAssay AID2685 (National Center for Advancing Translational Sciences (NCATS), 2010)
The list shows a part of the results. The main result of the screen is listed elsewhere. These columns were measured beside it and carry no call. Compounds called inactive in the main read-out are mostly missing here. The note in brackets gives the kind of curve behind each potency; many fits are weak.

Experiment: qHTS Assay for Lipid Storage Modulators in Drosophila S3 Cells;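 as to cell number change: cells counted by Cell Tracker Red CMTPX staining in the red channel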
Settings: BODIPY lipid droplet fluorescence, 18-24 h; for cell number change: measured here: cell count max response, cells fed with added oleic acid
Summary of the method: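 Laser-scanning cytometry quantifies lipid droplet accumulation (500–530 nm total intensity; droplet/cell object ratio) in oleic acid-fed (400 uM added) Drosophila S3 cells treated with a concentration series. 20 uM Triacsin C defined 100% inhibition.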

[1] = measured here: lipid fluorescence (Fed channel) AC50, cells fed with added oleic acid
[2] = measured here: cell number channel AC50, cells fed with added oleic acid

Row | SMILES | cell number change | AC50 [1] | AC50 [2]
1 | COc1ccc(S(=O)(=O)N2CCCC(C(=O)NCC3CCCO3)C2)cc1Cl (stereo not given) | 24.3% |  | 
2 | Cc1ccc(NC(=O)CCCCCN2C(=O)[C@@H]3Cc4ccccc4CN3C2=O)c(Cl)c1 | 8.02% | 6.51 µM [rising, single point] | 
3 | OCCC1CN(Cc2ccc(F)cc2Cl)CCN1CCc1ccccc1 (stereo not given) |  | 29.1 µM [rising, single point] | 
4 | COc1ccccc1-n1cn[nH]c1=S | 3.18% | 29.1 µM [rising, single point] | 7.31 µM [rising, partial curve, poor fit]
5 | N#Cc1sc2nc(-c3cccs3)cc(-c3ccc(Cl)cc3)c2c1N | 32.3% | 18.4 µM [rising, partial curve, poor fit] | 18.4 µM [rising, partial curve, poor fit]
6 | CCc1cccc(OCC(=O)Nc2cc(S(=O)(=O)N3CCOCC3)ccc2N2CCCC2)c1 |  | 29.1 µM [falling, single point] | 
7 | COc1cc([N+](=O)[O-])ccc1NC(=O)Nc1cccnc1 | -13.2% |  | 
8 | O=c1c(Cl)c(Cl)cnn1Cc1ccccc1Cl |  | 11.6 µM [falling, partial curve] | 
9 | CC1CCCN(C(=O)CSc2nnc(-c3ccco3)n2C)C1 (stereo not given) | 13.2% | 5.62 µM [falling, single point] | 
10 | CC(=O)NC1c2ccccc2C(=O)N1Cc1ccccc1 (stereo not given) | 17.3% |  | 
11 | Cn1cccc1/C=N\NC(=O)C1COc2ccc(C(C)(C)C)cc2O1 (stereo not given) |  | 29.1 µM [falling, single point] | 
12 | Cc1nn(Cc2noc(C(=O)NC3CCC(C)CC3)n2)c(C)c1Br (stereo not given) | 2.14% |  | 
13 | O=C(CSc1nc2ccccc2o1)Nc1nncs1 |  | 18.4 µM [falling, partial curve] | 
14 | COc1cc(S(=O)(=O)N2CCOCC2)ccc1NC(=O)CN1c2cccc3cccc(c23)S1(=O)=O | 25.6% | 4.11 µM [rising, full curve] | 
15 | CCCCCNC(=O)CSC1=N/C(=C\c2ccc(Cl)c(Cl)c2)C(=O)N1CC |  | 5.8 µM [falling, single point] | 
16 | CCCNc1nc2c(c(=O)[nH]c(=O)n2C)n1Cc1cccc(Br)c1 | -22% |  | 
17 | CCN(CC(=O)Nc1ccc(NC(C)=O)cc1)C(=O)/C=C/c1ccc(S(=O)(=O)N2CCCCCC2)cc1 | 10.9% | 0.501 µM [rising, full curve, poor fit] | 
18 | COCC(C)n1c(C)cc(C(=O)COC(=O)c2c(C)nn(-c3ccccc3)c2C)c1C (stereo not given) |  |  | 6.51 µM [rising, single point]
19 | COCc1ccc(CN2CCC(Oc3ccc(C(=O)NCc4ccccn4)cc3)CC2)o1 | 24.3% |  | 
20 | O=C(O)c1ccc(N/N=C/c2ccc(-c3ccc(Br)cc3)o2)cc1 | 8.7% |  | 
21 | Cc1ccc(NC(=O)C(C)N2C(=O)c3ccccc3C2=O)cc1S(=O)(=O)N1CCOCC1 (stereo not given) |  | 0.092 µM [rising, full curve, poor fit] | 

Row | SMILES | cell number change | AC50 [1] | AC50 [2]
22 | O=S1(=O)C[C@@H]2N=C(N/N=C/c3ccccc3)S[C@@H]2C1 | 8.56% | 0.13 µM [falling, full curve, poor fit] | 
23 | O=C(COC(=O)c1ccc(S(=O)(=O)C(F)F)cc1)Nc1ccccc1C(=O)NC1CC1 | -5.06% | 2.06 µM [falling, full curve] | 
24 | COc1ccccc1N(C(=O)c1snc(C(N)=O)c1N)C(C(=O)NC1CCCCC1)c1cccc(OC)c1OC (stereo not given) | 5.56% | 29.1 µM [falling, single point] | 
25 | C=CCCN(Cc1ccccc1)S(=O)(=O)c1cc(Br)ccc1Br |  | 0.651 µM [falling, single point] | 
26 | COCCNC(=S)N(c1ccccc1)C(C)C | -0.192% | 0.562 µM [falling, full curve, poor fit] | 
27 | CCN(CC)c1ccc(C(=O)N2CCN(Cc3ccccc3)CC2)cc1 | 30.8% |  | 1.03 µM [rising, full curve, poor fit]
28 | Cn1cnc(S(=O)(=O)N2CCc3ccccc32)c1 |  | 0.00517 µM [falling, full curve, poor fit] | 0.0058 µM [rising, full curve, poor fit]
29 | CCOC(=O)c1ccc(N2C(=O)c3cccc4c(C(=O)O)ccc(c34)C2=O)cc1 | 8.8% | 18.4 µM [rising, single point] | 
30 | O=C(Nc1ccncc1)c1ccc2ncsc2c1 | 9.95% | 0.146 µM [rising, full curve, poor fit] | 0.0058 µM [rising, full curve, poor fit]
31 | CCCN1C(=O)C2(C(C(=O)c3ccc(C)o3)=C(O)C(=O)N2CCCN2CCOCC2)c2ccccc21 (stereo not given) | -19.3% | 4.11 µM [falling, single point] | 0.164 µM [falling, full curve, poor fit]
32 | CC1(C)COC(/C=C/c2ccc([N+](=O)[O-])cc2)=N1 | -12.8% |  | 
33 | Cn1nc(C(=O)OCC(=O)NC2CCS(=O)(=O)C2)c2ccccc2c1=O (stereo not given) |  | 6.51 µM [falling, single point] | 
34 | CC(C)c1ccc(CCNC(=O)c2cccc(S(=O)(=O)N3CCN(C)CC3)c2)cc1 | 1.76% | 29.1 µM [falling, single point] | 
35 | CCOC(=O)Cn1c(CN(Cc2ccccc2)Cc2ccccc2)nc2c1c(=O)n(C)c(=O)n2C | 49.4% | 4.11 µM [rising, single point] | 29.1 µM [rising, single point]
36 | Cc1ccc(C(=O)NNC(=O)c2cccs2)cc1 | -12.3% | 0.103 µM [falling, partial curve, poor fit] | 
37 | CC(=O)Nc1ccc(NC(=O)C(C)Oc2ccccc2C(=O)NCc2ccccc2)cc1 (stereo not given) | -3.85% | 0.58 µM [falling, full curve, poor fit] | 
38 | COc1ccccc1OCC(O)CN1C(=O)NC(C)(C)C1=O (stereo not given) | 10.9% | 2.06 µM [rising, single point] | 
39 | O=C(Nc1ccc2c(c1)OCO2)c1ccc(Cl)s1 | 91.7% | 1.64 µM [rising, full curve] | 3.26 µM [rising, full curve]
40 | C[C@]12CC[C@H]3C(=CCc4cc(O)ccc43)[C@@H]1CCC2=O | -30.8% | 0.291 µM [falling, full curve, poor fit] | 
41 | Cc1cc(Br)cc(C)c1NC(=O)c1ccccc1[N+](=O)[O-] | 23.3% |  | 6.51 µM [rising, single point]
42 | COc1ccccc1N1C(=O)c2ccc(C(=O)Nc3ccc(C(=O)O)cc3)cc2C1=O | 23.4% |  | 2.31 µM [rising, full curve, poor fit]

Row | SMILES | cell number change | AC50 [1] | AC50 [2]
43 | Cc1ccc(-n2nc(C)c3c(C)c(CCC(=O)NCCCOC(C)C)c(C)nc32)cc1 | 17.6% |  | 
44 | CCO/C(C)=C1/SC(=S)NC1=O | -26.1% | 0.0058 µM [falling, full curve, poor fit] | 
45 | CN(C)S(=O)(=O)c1ccc(C(=O)NCCSc2ccccc2)cc1 |  |  | 0.461 µM [rising, partial curve, poor fit]
46 | CCOc1ccc(S(=O)(=O)NCCC(=O)Nc2ccncc2)cc1 | 43.3% | 9.2 µM [rising, partial curve] | 6.51 µM [rising, partial curve]
47 | O=C(CSc1nncn1-c1ccccc1F)NC1CCCCC1 | -4.39% | 5.8 µM [rising, partial curve] | 
48 | CCOC(=O)c1cc(=O)n(Cc2ccccc2C)c2ccccc12 |  | 5.8 µM [rising, single point] | 4.11 µM [rising, single point]
49 | CC(=O)c1ccc(N2CCN(C(=O)c3cc(-c4ccncc4)nc4ccc(Cl)cc34)CC2)cc1 | 2.46% |  | 
50 | Cn1cc(CN2CCCC(C(=O)Nc3cccc(-c4cc5ccccc5[nH]4)c3)C2)cn1 (stereo not given) | 12.1% |  | 0.58 µM [rising, full curve, poor fit]
51 | Nc1cccc2c1C(=O)N(C(=O)c1ccc(Cl)c(S(=O)(=O)N3CCCCCC3)c1)C2=O |  | 6.51 µM [falling, partial curve, poor fit] | 
52 | O=C(Nc1cccnc1)C(Cc1ccccc1)n1cccc1 (stereo not given) | 8.05% | 1.16 µM [rising, single point] | 
53 | COc1cccc(OCC(O)CN2CCN(c3ccccn3)CC2)c1 (stereo not given) | 8.1% | 4.61 µM [rising, full curve, poor fit] | 
54 | N#Cc1c(Cl)cccc1-n1ccnc1 | -11% | 20.6 µM [falling, partial curve] | 
55 | CN(C)c1ccc(-c2cc([C@H]3[C@@H]4C=CCC[C@@]4(C)C(=O)N3Cc3ccccc3)ccc2F)cc1 | -17.3% | 23.1 µM [falling, single point] | 
56 | O=C(COC(=O)c1ccc(Cl)nc1)Nc1ccc(Cl)cc1 | -0.402% |  | 
57 | COC(CNC(=O)C(=O)Nc1cc2c3c(c1)CC(=O)N3CCC2)OC |  | 23.1 µM [rising, single point] | 
58 | CC1(C)C(=O)N(c2ccccc2F)C(=O)c2ccccc21 | 11.3% |  | 
59 | Cc1nn(-c2ccccc2)c(Cl)c1/C=C1\SC(=S)N(C)C1=O | 16.2% | 0.82 µM [rising, full curve] | 
60 | CCCCN(CC)CCNC(=O)c1cc2c(-c3ccccc3F)nn(C)c2s1 | 90.3% |  | 20.6 µM [rising, single point]
61 | CC(=O)Nc1ccc(S(=O)(=O)N2CCN=C2SCc2ccc(F)cc2)cc1 | -39% |  | 25.9 µM [falling, partial curve, poor fit]
62 | Cn1ccnc1SCC(=O)Nc1cccc(S(=O)(=O)N2CCCCCC2)c1 |  | 0.092 µM [rising, full curve, poor fit] | 

A portion from the list above, as a working copy:
Row | SMILES | cell number change | AC50 [1] | AC50 [2]
46 | CCOc1ccc(S(=O)(=O)NCCC(=O)Nc2ccncc2)cc1 | 43.3% | 9.2 µM [rising, partial curve] | 6.51 µM [rising, partial curve]
47 | O=C(CSc1nncn1-c1ccccc1F)NC1CCCCC1 | -4.39% | 5.8 µM [rising, partial curve] | 
48 | CCOC(=O)c1cc(=O)n(Cc2ccccc2C)c2ccccc12 |  | 5.8 µM [rising, single point] | 4.11 µM [rising, single point]
49 | CC(=O)c1ccc(N2CCN(C(=O)c3cc(-c4ccncc4)nc4ccc(Cl)cc34)CC2)cc1 | 2.46% |  | 
50 | Cn1cc(CN2CCCC(C(=O)Nc3cccc(-c4cc5ccccc5[nH]4)c3)C2)cn1 (stereo not given) | 12.1% |  | 0.58 µM [rising, full curve, poor fit]
51 | Nc1cccc2c1C(=O)N(C(=O)c1ccc(Cl)c(S(=O)(=O)N3CCCCCC3)c1)C2=O |  | 6.51 µM [falling, partial curve, poor fit] | 
52 | O=C(Nc1cccnc1)C(Cc1ccccc1)n1cccc1 (stereo not given) | 8.05% | 1.16 µM [rising, single point] | 
53 | COc1cccc(OCC(O)CN2CCN(c3ccccn3)CC2)c1 (stereo not given) | 8.1% | 4.61 µM [rising, full curve, poor fit] | 
54 | N#Cc1c(Cl)cccc1-n1ccnc1 | -11% | 20.6 µM [falling, partial curve] | 
55 | CN(C)c1ccc(-c2cc([C@H]3[C@@H]4C=CCC[C@@]4(C)C(=O)N3Cc3ccccc3)ccc2F)cc1 | -17.3% | 23.1 µM [falling, single point] | 
56 | O=C(COC(=O)c1ccc(Cl)nc1)Nc1ccc(Cl)cc1 | -0.402% |  | 
57 | COC(CNC(=O)C(=O)Nc1cc2c3c(c1)CC(=O)N3CCC2)OC |  | 23.1 µM [rising, single point] | 
58 | CC1(C)C(=O)N(c2ccccc2F)C(=O)c2ccccc21 | 11.3% |  | 
59 | Cc1nn(-c2ccccc2)c(Cl)c1/C=C1\SC(=S)N(C)C1=O | 16.2% | 0.82 µM [rising, full curve] | 
